The target in the assay is AthBG2 fused to the N-terminal half of EYFP (BiFC construct) (A. thaliana). The experiment in a line: split reporter; BiFC with nEYFP(1-174) and cEYFP(175-end) fusions cotransformed in onion peel by gene gun; 22°C in darkness for 24 h; confocal microscopy.

Results are given in words; binding and its absence hold for the method and conditions named. In cells and extracts the contact can be indirect. Binding can be weak; no strength is given. Where a sequence is shown, tags or fusion partners need not be part of it.

Drawing on paper PMC5660992, this text covers binding for one molecule.

B1: Y14 fused to the C-terminal half of EYFP (BiFC construct) (protein, UniProt F4I9J7 1-202)
chain: MANIESEAVDFEPEEDDLMDEEGTAIDGADVSPRAGHPRLKSAIAGANGESAKKTKGRGFREEKDSDRQRRLSSRDFESLGSDGRPGPQRSVEGWIILVSGVHEETQEEDITNAFGDFGEIKNLNLNLDRRSGYVKGYALIEYEKKEEAQSAISAMNGAELLTQNVSVDWAFSSGPSGGESYRRKNSRYGRSQRSRSPRRRY
For B1, the binding result is “binds”.
